Experimental findings from US20240101605A1 are described below.

Chains of the proteins cited; added tags and fusions are not shown. Lines headed by an entry give the natural chain unless they say otherwise; changes in a name come on top.
UniProt Q07108: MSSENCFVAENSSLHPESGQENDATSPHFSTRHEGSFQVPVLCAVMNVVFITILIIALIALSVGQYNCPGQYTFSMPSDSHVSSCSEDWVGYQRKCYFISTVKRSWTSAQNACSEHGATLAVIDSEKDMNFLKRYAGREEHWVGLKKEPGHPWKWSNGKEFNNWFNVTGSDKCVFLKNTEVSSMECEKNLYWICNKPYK

This test concerns the target extracellular domain from human CD69 (human) (UniProt Q07108). The test is described as follows: flow cytometry of the E. coli-displayed Z variant library after one round of MACS and three rounds of FACS; biotinylated hCD69 detected with a fluorescent streptavidin or neutravidin conjugate, surface expression with HSA-Alexa 647; the population is a library, and the gated cloud is assigned to ZC69078 by sequencing of 100 clones. On the technique in general: In flow cytometry, cells or beads pass a laser one at a time.

No constants are given. Whether binding was seen depends on the method and setting. Some results given as binding are weak or reduced against the parent protein; the word gives no strength.

B1: ZC69078 (designed binder)
Z variant displayed on E. coli cells: VDNKFNKEFYHAMKEILKLPNLNKYQKEAFKTSLKDDPSQSSELLSEAKQLNDSQAPK
Turning to B1, the binding entry was “binds”.
